This is an account of results in PubChem BioAssay AID248 (DTP/NCI, 2004).

In the test the test system is L1210 leukemia ip in BDF1 mice, survival T/C. In words: NCI In Vivo Anticancer Drug Screen. Data for tumor model L1210 Leukemia (intraperitoneal) in B6D2F1 (BDF1) mice. Conditions: T/C endpoint: mean survival time, higher T/C = longer survival.
Where [1] appears, read: dose: 100.0 mg/kg/injection, schedule: Q04DX002 (ip), vehicle: Klucel (hydroxypropylcellulose) (HPC).

The list does not hold the whole screen: its compounds were picked by chemical class. Not every dose and run of a compound is shown. T/C is the treated group as % of the vehicle group. For survival time, the PubChem record calls one and a half times the control and up active, and a quarter to a half above the control has no call in these data; cut-offs in other NCI protocols can differ. Some entries show no survivor count and are marked so; the dose need not have been tolerated. Schedule codes are those of the source, read here as Q, the interval in days (D) or hours (H), X, the number of doses. Some entries hold several experiments; the values are given in rising order.

Take `CCCC(O)C#CCN(CCCl)CCCl` (stereo not given): the T/C reads like this: (dose: 2.0 mg/kg/injection, schedule: Q01DX009 (ip), vehicle: saline) 112 % of control [survivor count not shown]; (dose: 2.5 mg/kg/injection, schedule: Q01DX009 (ip), vehicle: saline) 110 % of control [survivor count not shown]; (dose: 3.0 mg/kg/injection, schedule: Q01DX009 (ip), vehicle: saline) 120 % of control [survivor count not shown]; (dose: 3.7 mg/kg/injection, schedule: Q01DX009 (ip), vehicle: saline) 108 % of control [survivor count not shown]; (dose: 5.0 mg/kg/injection, schedule: Q01DX009 (ip), vehicle: saline) 112 % of control [survivor count not shown]; (dose: 5.6 mg/kg/injection, schedule: Q01DX009 (ip), vehicle: saline) 110 % of control [survivor count not shown]. Also, the T/C runs as follows: (dose: 8.0 mg/kg/injection, schedule: Q01DX009 (ip), vehicle: saline) 137 [survivor count not shown] and 139 % of control [survivor count not shown]; (dose: 8.5 mg/kg/injection, schedule: Q01DX001 (ip), vehicle: saline) 117 % of control [survivor count not shown]; (dose: 8.5 mg/kg/injection, schedule: Q01DX009 (ip), vehicle: saline) 132 [survivor count not shown] and 134 % of control [survivor count not shown]; (dose: 13.0 mg/kg/injection, schedule: Q01DX001 (ip), vehicle: saline) 111 % of control [survivor count not shown]; (dose: 13.0 mg/kg/injection, schedule: Q01DX009 (ip), vehicle: saline) 137 [survivor count not shown] and 138 % of control [survivor count not shown]; (dose: 15.0 mg/kg/injection, schedule: Q01DX001 (ip), vehicle: saline) 124 % of control [survivor count not shown]. Further, the T/C was 121 % of control [survivor count not shown] (dose: 20.0 mg/kg/injection, schedule: Q01DX001 (ip), vehicle: saline); 142 % of control [survivor count not shown] (dose: 20.0 mg/kg/injection, schedule: Q01DX009 (ip), vehicle: saline); 132 [survivor count not shown], 140 [survivor count not shown], 141 % of control [survivor count not shown] (dose: 30.0 mg/kg/injection, schedule: Q01DX001 (ip), vehicle: saline); 144 % of control [survivor count not shown] (dose: 45.0 mg/kg/injection, schedule: Q01DX001 (ip), vehicle: saline); 114 % of control [survivor count not shown] (dose: 60.0 mg/kg/injection, schedule: Q01DX001 (ip), vehicle: saline); 139 % of control [survivor count not shown] (dose: 67.0 mg/kg/injection, schedule: Q01DX001 (ip), vehicle: saline). Moreover, the T/C (dose: 75.0 mg/kg/injection, schedule: Q01DX001 (sc), vehicle: saline) is 139 % of control [survivor count not shown].

Take `CC(C)(C)C(=O)CBr`: the T/C is 100 % of control [survivor count not shown] under setting [1] and 88 % of control [survivor count not shown] (dose: 200.0 mg/kg/injection, schedule: Q04DX002 (ip), vehicle: Klucel (hydroxypropylcellulose) (HPC)).

For `N#CSCCCl`, the T/C is, setting by setting: (dose: 3.13 mg/kg/injection, schedule: Q01DX009 (ip), vehicle: Klucel (hydroxypropylcellulose) (HPC)) 97 % of control [survivor count not shown]; (dose: 6.25 mg/kg/injection, schedule: Q01DX009 (ip), vehicle: Klucel (hydroxypropylcellulose) (HPC)) 93 % of control [survivor count not shown].

Consider `O=c1c2ccccc2ncn1CCN(CCCl)CCCl`, for which the T/C is, setting by setting: (dose: 50.0 mg/kg/injection, schedule: Q04DX002 (ip), vehicle: saline) 125 % of control [survivor count not shown]; (dose: 100.0 mg/kg/injection, schedule: Q04DX002 (ip), vehicle: saline) 110 [survivor count not shown] and 159 % of control [survivor count not shown]; (dose: 200.0 mg/kg/injection, schedule: Q04DX002 (ip), vehicle: saline) 134 [survivor count not shown] and 141 % of control [survivor count not shown]; (dose: 400.0 mg/kg/injection, schedule: Q04DX002 (ip), vehicle: saline) 109 % of control [survivor count not shown].

With `N#Cc1ccc(C(=O)CBr)cc1`, the T/C (dose: 12.5 mg/kg/injection, schedule: Q04DX003 (ip), vehicle: Klucel (hydroxypropylcellulose) (HPC)) was 89 % of control [survivor count not shown]; the T/C (dose: 25.0 mg/kg/injection, schedule: Q04DX003 (ip), vehicle: Klucel (hydroxypropylcellulose) (HPC)) was 93 % of control [survivor count not shown]; the T/C (dose: 50.0 mg/kg/injection, schedule: Q04DX003 (ip), vehicle: Klucel (hydroxypropylcellulose) (HPC)) was 94 % of control [survivor count not shown].

Take `CCOC(=O)N1CCC(=O)CC1`: the T/C (dose: 100.0 mg/kg/injection, schedule: Q01DX001 (ip), vehicle: saline) is 100 % of control [survivor count not shown]; the T/C (dose: 100.0 mg/kg/injection, schedule: Q01DX009 (ip), vehicle: saline) is 102 % of control [survivor count not shown]; the T/C (dose: 100.0 mg/kg/injection, schedule: Q04DX003 (ip), vehicle: saline) is 100 % of control [survivor count not shown]; the T/C (dose: 200.0 mg/kg/injection, schedule: Q01DX001 (ip), vehicle: saline) is 105 % of control [survivor count not shown]; the T/C (dose: 200.0 mg/kg/injection, schedule: Q01DX009 (ip), vehicle: saline) is 96 % of control [survivor count not shown]; the T/C (dose: 200.0 mg/kg/injection, schedule: Q04DX003 (ip), vehicle: saline) is 110 % of control [survivor count not shown]. Also, the T/C is 98 % of control [survivor count not shown] (dose: 400.0 mg/kg/injection, schedule: Q01DX001 (ip), vehicle: saline); 100 % of control [survivor count not shown] (dose: 400.0 mg/kg/injection, schedule: Q01DX009 (ip), vehicle: saline); 107 % of control [survivor count not shown] (dose: 400.0 mg/kg/injection, schedule: Q04DX003 (ip), vehicle: saline).

As to `CCCc1[nH]c(=O)[nH]c(=O)c1CN(CCCl)CCCl`, the T/C (dose: 25.0 mg/kg/injection, schedule: Q04DX002 (ip), vehicle: Klucel (hydroxypropylcellulose) (HPC)) is 93 % of control [survivor count not shown]; the T/C (dose: 50.0 mg/kg/injection, schedule: Q04DX002 (ip), vehicle: Klucel (hydroxypropylcellulose) (HPC)) was 100 % of control [survivor count not shown]; the T/C under setting [1] was 111 % of control [survivor count not shown].

For `Cc1[nH]c(=O)[nH]c(=O)c1CN(CCCl)CCCl`, the T/C (dose: 0.75 mg/kg/injection, schedule: Q04DX002 (ip), vehicle: Klucel (hydroxypropylcellulose) (HPC)) is 134 % of control [survivor count not shown]; the T/C (dose: 1.5 mg/kg/injection, schedule: Q04DX002 (ip), vehicle: Klucel (hydroxypropylcellulose) (HPC)) was 138 % of control [survivor count not shown]; the T/C (dose: 3.1 mg/kg/injection, schedule: Q04DX002 (ip), vehicle: Klucel (hydroxypropylcellulose) (HPC)) is 115 % of control [survivor count not shown].
